Values from PubChem BioAssay AID1259308 (NCATS, 2017)
Shown is one part, drawn at random, of about 59,000 reagents. Over the whole deposit, about 1,510 (2.6%) are marked active. 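Calls use total luciferase alone and ignore viability, so some active siRNAs may act by altering cell number.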 Reagents against one gene are numbered here. Reagent sequences are not shown.

Aim: 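Genes whose loss raises luciferase production in HEK293 cells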 (primary screen)
Cells: human HEK293 embryonic kidney cells stably expressing firefly luciferase (HEK-CMV-Luc2-Hygro)
Reagent: single siRNA against human genes, 0.8 pmol siRNA per well
Duration: 72 h
Read-out: 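Luciferase light (ONE-Glo) measured on one replicate plate set and viability (CellTiter-Glo) on the other, scaled to a negative control siRNA, with robust z-scores and luciferase per cell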
Scale: total luciferase, z-score and total luciferase, % of control: higher = more reporter protein produced; luciferase per cell, z-score: higher = more reporter output per viable cell; viable cells, % of control: higher = more viable cells
Rule for the call: 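An siRNA counts as active if its total luciferase robust z-score exceeds 3; genes with two or more such siRNAs out of three were retested with fresh siRNAs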
Meaning of the calls: active = raised luciferase; inactive = no rise

Target gene	reagent no.	total luciferase, z-score	total luciferase, % of control	luciferase per cell, z-score	viable cells, % of control	activity call
DDA1 (DET1 and DDB1 associated 1)	1	-1.24	57.2	-1.9	105	inactive
DDA1 (DET1 and DDB1 associated 1)	2	-0.209	77.7	-0.508	99.3	inactive
DDA1 (DET1 and DDB1 associated 1)	3	-0.6	69.9	-0.731	94.7	inactive
UBXN4 (UBX domain protein 4)	1	-0.0243	81.4	-0.741	111	inactive
UBXN4 (UBX domain protein 4)	2	-2.32	35.8	-2.61	79.6	inactive
UBXN4 (UBX domain protein 4)	3	-0.0941	80	1.59	58.9	inactive
PLK3 (polo like kinase 3)	1	-0.00847	81.7	-0.652	108	inactive
PLK3 (polo like kinase 3)	2	-0.94	63.2	-1.28	98.9	inactive
PLK3 (polo like kinase 3)	3	-0.806	65.9	-0.107	75.7	inactive
TAMALIN (trafficking regulator and scaffold protein tamalin)	1	-1.54	51.3	-0.749	69.8	inactive
TAMALIN (trafficking regulator and scaffold protein tamalin)	2	-0.209	77.7	0.113	84.3	inactive
TAMALIN (trafficking regulator and scaffold protein tamalin)	3	2.22	126	1.64	91.5	inactive
CFAP92 (cilia and flagella associated protein 92 (putative))	1	-1.42	53.7	-2.12	105	inactive
CFAP92 (cilia and flagella associated protein 92 (putative))	2	0.136	84.6	-0.0342	95.4	inactive
CFAP92 (cilia and flagella associated protein 92 (putative))	3	-1.31	55.8	-1.2	85.6	inactive
GPR15LG (G protein-coupled receptor 15 ligand)	1	2.72	136	1.2	111	inactive
GPR15LG (G protein-coupled receptor 15 ligand)	2	1.83	118	2.94	60.9	inactive
GPR15LG (G protein-coupled receptor 15 ligand)	3	-0.947	63	-0.696	84.6	inactive
TMEM131L (transmembrane 131 like)	1	0.486	91.5	0.243	96	inactive
TMEM131L (transmembrane 131 like)	2	-0.188	78.1	-0.315	94.9	inactive
TMEM131L (transmembrane 131 like)	3	0.0681	83.2	0.137	89.7	inactive
EIF6 (eukaryotic translation initiation factor 6)	1	-0.942	63.2	-0.555	81.7	inactive
EIF6 (eukaryotic translation initiation factor 6)	2	-0.957	62.8	-0.996	91.3	inactive
EIF6 (eukaryotic translation initiation factor 6)	3	-0.531	71.3	-0.33	86.9	inactive
AARS1 (alanyl-tRNA synthetase 1)	1	-0.0348	81.2	0.121	87.9	inactive
AARS1 (alanyl-tRNA synthetase 1)	2	0.347	88.8	0.645	83.7	inactive
AARS1 (alanyl-tRNA synthetase 1)	3	-0.811	65.7	-1.54	110	inactive
HNRNPL (heterogeneous nuclear ribonucleoprotein L)	1	-0.244	77	-0.525	98.8	inactive
HNRNPL (heterogeneous nuclear ribonucleoprotein L)	2	-0.109	79.7	-0.388	98.7	inactive
HNRNPL (heterogeneous nuclear ribonucleoprotein L)	3	-1.18	58.3	-0.0541	66.1	inactive
UQCRFS1P2	1	0.445	90.7	0.412	91	inactive
UQCRFS1P2	2	-0.157	78.8	0.538	76.4	inactive
UQCRFS1P2	3	-1.01	61.8	-0.747	84	inactive
USB1 (U6 snRNA biogenesis phosphodiesterase 1)	1	-1.37	54.6	-1.62	93.5	inactive
USB1 (U6 snRNA biogenesis phosphodiesterase 1)	2	0.205	86	0.13	92.8	inactive
USB1 (U6 snRNA biogenesis phosphodiesterase 1)	3	-0.697	68	-1.4	110	inactive
PTCD2 (pentatricopeptide repeat domain 2)	1	1.44	111	0.784	100	inactive
PTCD2 (pentatricopeptide repeat domain 2)	2	-0.516	71.6	-0.658	95.2	inactive
PTCD2 (pentatricopeptide repeat domain 2)	3	-1.07	60.5	-1.51	101	inactive
MRPL50 (mitochondrial ribosomal protein L50)	1	0.218	86.2	0.0297	95.6	inactive
MRPL50 (mitochondrial ribosomal protein L50)	2	-1.36	54.8	0.343	56	inactive
MRPL50 (mitochondrial ribosomal protein L50)	3	-0.139	79.1	-0.461	99.8	inactive
CRTAC1 (cartilage acidic protein 1)	1	1.06	103	0.334	105	inactive
CRTAC1 (cartilage acidic protein 1)	2	0.376	89.4	-0.306	108	inactive
CRTAC1 (cartilage acidic protein 1)	3	1.13	104	1.14	86.5	inactive
GRIA4 (glutamate ionotropic receptor AMPA type subunit 4)	1	-0.354	74.8	-0.16	87.2	inactive
GRIA4 (glutamate ionotropic receptor AMPA type subunit 4)	2	0.0691	83.3	0.126	90	inactive
GRIA4 (glutamate ionotropic receptor AMPA type subunit 4)	3	0.775	97.3	0.0146	108	inactive
PAK2 (p21 (RAC1) activated kinase 2)	1	0.264	87.1	0.307	89.8	inactive
PAK2 (p21 (RAC1) activated kinase 2)	2	-0.308	75.8	-0.348	92.8	inactive
PAK2 (p21 (RAC1) activated kinase 2)	3	-0.543	71.1	-0.805	98.2	inactive
CABYR (calcium binding tyrosine phosphorylation regulated)	1	0.649	94.8	1.11	79.2	inactive
CABYR (calcium binding tyrosine phosphorylation regulated)	2	-0.805	65.9	-0.904	93.4	inactive
CABYR (calcium binding tyrosine phosphorylation regulated)	3	0.648	94.8	0.929	82.9	inactive
WDR87 (WD repeat domain 87)	1	-1.04	61.2	-0.188	71.8	inactive
WDR87 (WD repeat domain 87)	2	-0.679	68.4	1.25	55	inactive
WDR87 (WD repeat domain 87)	3	-1.91	43.9	-1.42	71.3	inactive
GORAB (golgin, RAB6 interacting)	1	-0.994	62.1	-0.792	85.5	inactive
GORAB (golgin, RAB6 interacting)	2	-0.98	62.4	0.528	60.7	inactive
GORAB (golgin, RAB6 interacting)	3	0.0934	83.7	0.168	89.5	inactive
CIITA (class II major histocompatibility complex transactivator)	1	-0.153	78.9	1.83	54.4	inactive
CIITA (class II major histocompatibility complex transactivator)	2	-0.842	65.1	-1.05	95.9	inactive
CIITA (class II major histocompatibility complex transactivator)	3	-0.0734	80.4	-0.489	102	inactive
DKC1 (dyskerin pseudouridine synthase 1)	1	0.706	95.9	0.494	94.1	inactive
DKC1 (dyskerin pseudouridine synthase 1)	2	-0.871	64.6	-1.18	98.5	inactive
DKC1 (dyskerin pseudouridine synthase 1)	3	-0.509	71.8	-1.04	105	inactive
GALT (galactose-1-phosphate uridylyltransferase)	1	0.734	96.5	2.19	60.6	inactive
GALT (galactose-1-phosphate uridylyltransferase)	2	1.74	116	0.918	102	inactive
GALT (galactose-1-phosphate uridylyltransferase)	3	-0.596	70	0.264	73	inactive
ATP9B (ATPase phospholipid transporting 9B)	1	0.312	88.1	-0.0727	100	inactive
ATP9B (ATPase phospholipid transporting 9B)	2	-0.196	78	-0.702	105	inactive
ATP9B (ATPase phospholipid transporting 9B)	3	-1.19	58.3	-1.34	92.5	inactive
SLC35D1	1	0.27	87.3	-0.026	98.2	inactive
SLC35D1	2	1.46	111	1.54	82.6	inactive
SLC35D1	3	0.443	90.7	0.191	96.4	inactive
